The values below come from publication PMC6365566.

Results are given in words; binding and its absence hold for the method and conditions named.

The assay concerns the target recombinant Can f 6 protein (rCan f 6) (dog (Canis familiaris)) (UniProt H2B3G5). Briefly: AUC; sedimentation velocity (AUC-SV); sample 50 µM; 60,000 rpm; 20 °C; UV detection at 280 nm; continuous C(s) distribution model (SEDFIT); both purified.

B1: recombinant Can f 6 protein (rCan f 6) (protein, UniProt H2B3G5 16-190)
chain: GSHEEENDVVKGNFDISKISGDWYSILLASDIKEKIEENGSMRVFVKDIEVLSNSSLIFTMHTKVNGKCTKISLICNKTEKDGEYDVVHDGYNLFRIIETAYEDYIIFHLNNVNQEQEFQLMELYGRKPDVSPKVKEKFVRYCQGMEIPKENILDLTQVDRCLQARQSEAAQVSSAE
As to B1, the binding entry is “no binding (tested: 50 µM)”.
